These are yes or no findings as the source states them, for the method shown. Some results given as binding are weak or reduced against the parent protein; the word gives no strength.
What was measured:
[1] = target: Peptide C (CNBr peptide, Cys knot, dimer) (human); test: BIAcore competition assay, legend of FIG. 6
[2] = target: Peptide E (reduced CNBr peptide, 1-80) (human); test: BIAcore competition assay, legend of FIG. 6
[3] = target: Peptide C (CNBr peptide, Cys knot, dimer) (human); test: BIAcore competition: 12A5-5 pre-incubated with the HPLC peptide fraction in solution, then passed over immobilized human myostatin; low response means the peptide binds the antibody
[4] = target: Peptide E (reduced CNBr peptide, 1-80) (human); test: as above
[5] = target: T1, GDF11 (UniProt O95390 299-407); test: Biacore SPR, 10 nM ligand over immobilized antibody
T1 construct: also called growth and differentiation factor 11; BMP-11

Protein sequences, listed by entry. Tags and fused reporters are not part of them. Residues count along the entry.
UniProt O95390, residues 299-407: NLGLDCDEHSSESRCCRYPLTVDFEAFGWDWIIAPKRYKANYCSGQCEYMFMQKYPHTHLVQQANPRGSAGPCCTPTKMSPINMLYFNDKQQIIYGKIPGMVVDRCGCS

[6] = target: Peptide C (CNBr peptide, Cys knot, dimer) (human); test: direct BIAcore binding, 25 nM antibody over immobilized peptide
[7] = target: Peptide E (reduced CNBr peptide, 1-80) (human); test: as above
[8] = target: Peptide C (CNBr peptide, Cys knot, dimer) (human); test: direct BIAcore binding: 25 nM 12A5-5 passed over the covalently immobilized peptide, then buffer
[9] = target: Peptide E (reduced CNBr peptide, 1-80) (human); test: as above
[10] = target: Peptide C (CNBr peptide, Cys knot, dimer) (human); test: BIAcore competition assay, peptide in solution against immobilized human myostatin
[11] = target: Peptide E (reduced CNBr peptide, 1-80) (human); test: as above

- binding [1]: binds
- binding [2]: binds
- binding [3]: binds
- binding [4]: binds
- binding [5]: binds
- binding [6]: binds
- binding [7]: binds
- binding [8]: binds
- binding [9]: binds
- binding [10]: binds
- binding [11]: binds
B1: anti-myostatin neutralizing monoclonal antibody 12A5-5 (antibody, V domains shown)
VH: EVQLVESGGGLVQPGGSLRLSCAASGFTFSRYWMNWVRQAPGKGLEWVAQIRLKSDNYATHYAESVKGRFTISRDNAKNSLYLQMNSLRAEDTAVYYCTEGLDYWGQGTTVTVSS
VL: DIQMTQSPSSLSASVGDRVTITCKASQDINKYVAWYQQKPGKAPKLLIYYTSWLQPGVPSRFSGSGSGTDFTFTISSLQPEDIATYYCLQYDNLLYTFGQGTKLEIK
notes: in the KinExA assay it was detected with a goat anti-human-Fc antibody, so it carries a human Fc; also called Mab 12A5-5; MAb 12A5-5
